Laboratory results as given in doi:10.1101/2021.03.11.434947.
No constants are given. Whether binding was seen depends on the method and setting. In cells and extracts the contact can be indirect. Some binding calls cover weakened binding; strength is not graded here. Sequences can lack the tags named with a protein.

Target: T1, Nord-HA (Drosophila) (UniProt Q9W192)
T1 sequence: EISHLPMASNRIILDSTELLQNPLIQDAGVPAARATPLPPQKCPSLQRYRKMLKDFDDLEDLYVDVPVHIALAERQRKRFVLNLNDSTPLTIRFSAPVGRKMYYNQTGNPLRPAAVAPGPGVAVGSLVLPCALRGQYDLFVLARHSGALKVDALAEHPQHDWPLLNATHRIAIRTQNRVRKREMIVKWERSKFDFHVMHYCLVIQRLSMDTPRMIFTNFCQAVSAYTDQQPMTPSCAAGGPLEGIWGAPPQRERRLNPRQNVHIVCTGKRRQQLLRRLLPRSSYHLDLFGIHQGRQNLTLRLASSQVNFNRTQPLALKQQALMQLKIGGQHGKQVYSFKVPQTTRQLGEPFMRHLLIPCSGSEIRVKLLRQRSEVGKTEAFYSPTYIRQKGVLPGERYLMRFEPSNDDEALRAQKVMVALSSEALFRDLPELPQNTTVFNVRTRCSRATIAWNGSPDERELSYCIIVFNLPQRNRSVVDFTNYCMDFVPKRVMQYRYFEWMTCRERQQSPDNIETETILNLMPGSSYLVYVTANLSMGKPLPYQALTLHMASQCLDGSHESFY
Experiment: co-IP

binding: binds
B1: Dally-Myc (protein, UniProt Q24114 27-602)
chain: KHLDLDGIHHHQHHLHSATTHHRRRLQRDSRAKDAVGGSTHQCDAVKSYFESIDIKSSGTYSEKGAICGGNCCNNATELELRDKAAGMFEQLLHHHTSSLRGVLETNAKQFQSHVLELAQISENMTHSLFSKVYTRMVPSSRMMIHQLYTEIMNHLIYTSNYTNSNGQLGRRGIGSVQSNLEEAVRHFFVQLFPVAYHQMVHLSKNNLGDLHEDYVNCLQHNFDEMHPFGDIPQQVQSNLGKSVHMSNVFMNALLQAAEVLSEADALYGEQLTDTCKLHLLKMHYCPNCNGHHSSSRSETKLCYGYCKNVMRGCSAEYAGLLDSPWSGVVDSLNNLVTTHILSDTGIINVIKHLQTYFSEAIMAAMHNGPELEKKVKKTCGTPSLTPYSSGEPDARPPPHKNNVKWATDPDPGMVLFLSTIDKSKEFYTTIVDNFCDEQQHSRDDHSCWSGDRFGDYTQLLINPGTDSQRYNPEVPFNAKAQTGKLNELVDKLFKIRKSIGAAAPSNSIQATHDIQNDMGEGSGGGEGQIGDDEEEYGGAHGSGDGSGDGPHTPIEESEGTTTNEVESRDSGKTSG
modifications: heparan sulfate (HS) modification
